Source: PubChem BioAssay AID1259405 (NCATS, 2018)
Screen: 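Silenced genes that increase secreted GFP made by CHO cells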 (primary screen). Cell system: Chinese hamster CHO-K1 ovary cells with stable secreted eGFP expression. Knock-down reagent: single siRNA against mouse genes, 0.8 pmol siRNA per well (2 µl of 400 nM stock). Duration: 3 days. Read-out: 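Percent of the per-plate non-targeting control median for intracellular GFP per well by laser scanning cytometry and for cell viability by ATP luminescence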. Scale: GFP, % of control: higher = more GFP per well, higher productivity; viability (ATP), % of control: higher = more viable cells (more ATP). Hit rule: 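a knock-down is called active if GFP reaches 120% or more of non-targeting control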.
This is a random part of about 50,000 reagents tested. About 4,000 of all reagents (8%) were called active. 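Mouse siRNA library applied to hamster cells; one well for each siRNA.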 Reagents against one gene are numbered here.

gene knocked down,reagent no.,"GFP, % of control","viability (ATP), % of control",activity call
Pbxip1,1,56.1,32.6,inactive
Pbxip1,2,26.4,24,inactive
Pbxip1,3,58.9,56.6,inactive
Cplx3,1,54,76,inactive
Cplx3,2,42.2,71.3,inactive
Cplx3,3,77.9,82.2,inactive
Mb,1,90,111,inactive
Mb,2,141,83,active
Mb,3,76.1,87,inactive
Cd1d1,1,53.8,64.4,inactive
Cd1d1,2,91.8,74.7,inactive
Cd1d1,3,122,106,active
Cytip,1,81.7,87.5,inactive
Cytip,2,55.9,81.4,inactive
Cytip,3,62.8,77,inactive
Acap1,1,189,151,active
Acap1,2,95.1,87.7,inactive
Acap1,3,61.4,77.6,inactive
Mrgpra6,1,50.2,32.6,inactive
Mrgpra6,2,84.5,87.6,inactive
Mrgpra6,3,55.3,62.2,inactive
Rpl15,1,34.6,25.9,inactive
Rpl15,2,34.9,57.5,inactive
Rpl15,3,85.4,95.1,inactive
Crp,1,91.8,96.3,inactive
Crp,2,31.1,63.4,inactive
Fkbp5,1,49.8,67.4,inactive
Fkbp5,2,79,98.3,inactive
Fkbp5,3,118,113,inactive
Zfp706,1,66.7,70.4,inactive
Zfp706,2,77.7,91.3,inactive
Zfp706,3,65.7,46.3,inactive
Rnf183,1,42.1,22.7,inactive
Rnf183,2,78.8,91.8,inactive
Rnf183,3,54.9,71.6,inactive
5031410I06Rik,1,70,77.4,inactive
5031410I06Rik,2,71.9,62.5,inactive
5031410I06Rik,3,144,100,active
Pcbp2,1,87.4,83.3,inactive
Pcbp2,2,79.1,52.1,inactive
Or52n2,1,47.5,31.9,inactive
Or52n2,2,94.3,63.8,inactive
Or52n2,3,66.1,110,inactive
Tmem175,1,54,74.8,inactive
Tmem175,2,68.3,89.6,inactive
Tmem175,3,73,55.8,inactive

Next part (8 carried over from the part before).
gene knocked down,reagent no.,"GFP, % of control","viability (ATP), % of control",activity call
Pcbp2,1,87.4,83.3,inactive
Pcbp2,2,79.1,52.1,inactive
Or52n2,1,47.5,31.9,inactive
Or52n2,2,94.3,63.8,inactive
Or52n2,3,66.1,110,inactive
Tmem175,1,54,74.8,inactive
Tmem175,2,68.3,89.6,inactive
Tmem175,3,73,55.8,inactive
Tk1,1,78.9,62.2,inactive
Tk1,2,79.7,68.8,inactive
Tk1,3,121,86.9,active
Or1j11,1,134,70.4,active
Or1j11,2,139,84,active
Or1j11,3,36.5,86.7,inactive
Uhrf2,1,76.6,88.6,inactive
Uhrf2,2,28.3,38.2,inactive
Uhrf2,3,83.2,123,inactive
Or6b13,1,84,49.8,inactive
Or6b13,2,104,73.8,inactive
Or6b13,3,35.9,65.8,inactive
Gfral,1,50,77.5,inactive
Gfral,2,75.3,76.3,inactive
Gfral,3,38.7,47.7,inactive
Gpr171,1,114,68.1,inactive
Gpr171,2,63.3,47.5,inactive
Gpr171,3,96.5,71.8,inactive
Rab25,1,109,107,inactive
Rab25,2,102,102,inactive
Rab25,3,54.9,84.5,inactive
Vwa1,1,123,80.9,active
Vwa1,2,56.8,52.4,inactive
Vwa1,3,63.7,70.3,inactive
Slc9b2,1,59.1,65,inactive
Slc9b2,2,64.6,72.8,inactive
Slc9b2,3,102,92.5,inactive
Tmem129,1,74.4,78.7,inactive
Tmem129,2,118,96.9,inactive
Tmem129,3,116,88.4,inactive
Shprh,1,83.8,92.6,inactive
Shprh,2,54.8,67.6,inactive
Shprh,3,71.8,92.2,inactive
Bhlhb9,1,10.8,21.2,inactive
Bhlhb9,2,81.4,78.8,inactive
Bhlhb9,3,67.9,58.9,inactive
Pdia3,1,138,125,active
Pdia3,2,88.1,74.5,inactive
Pdia3,3,86.6,99.2,inactive
